In publication PMC4172784:

Target: T1, HA-tagged BIV Vif (VR-BIV Vif-HA) (bovine immunodeficiency virus (BIV BIM127)) (UniProt P19563)
T1 sequence: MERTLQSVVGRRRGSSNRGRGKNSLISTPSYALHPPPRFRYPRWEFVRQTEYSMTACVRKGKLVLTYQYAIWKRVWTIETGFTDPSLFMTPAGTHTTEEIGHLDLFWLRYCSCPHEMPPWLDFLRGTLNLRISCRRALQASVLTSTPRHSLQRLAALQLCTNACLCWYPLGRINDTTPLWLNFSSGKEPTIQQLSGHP
Test: co-IP

## cmyc-tagged btCul2 (VR-btCul2-cmyc) (Bos taurus)
  binding: binds

Results are given in words; binding and its absence hold for the method and conditions named. In cells and extracts the contact can be indirect. Binding calls can cover weak binding; strength is not graded here. Tags and fused reporters may be left off the sequences shown.
